Counter-ions that a name gives are not always drawn. Some of the results follow. Repeats in this data set agree poorly, so a single value says little.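 Wells held roughly 40 S. mansoni schistosomula, imaged in bright field over time against wells given 0.1% DMSO. The paper defines hits as drugs with a Mahalanobis distance of at least 2.47, three standard deviations above the DMSO control mean. Degeneracy is the proportion of worms classified as opaque.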
tested on: Schistosoma mansoni schistosomula; experiment: Mahalanobis distance of static-rate-frequency phenotype descriptors from DMSO controls (dimensionless); higher = stronger phenotypic change versus DMSO; settings: 10 µM; 72 h

Mahalanobis distance, inactive:
CN[C@@H]1[C@@H](O)[C@@H](O[C@@H]2[C@@H](O)[C@H](O[C@H]3OC(CN)=CC[C@H]3N)[C@@H](N)C[C@H]2N)OC[C@]1(C)O [Sisomicin Sulfate] 2.37
Cc1cc(NS(=O)(=O)c2ccc(N)cc2)no1 [Sulfamethoxazole] 1.82
Cc1ccccc1OCC(O)CO (centres undefined) [Mephenesin] 1.38
CC1(C)S[C@@H]2[C@H](NC(=O)C(C(=O)O)c3ccccc3)C(=O)N2[C@H]1C(=O)O (some centres undefined) [Carbenicillin Disodium] 1.55
C[C@H](N)[C@H](O)c1cccc(O)c1 [Metaraminol] 1.31
C[C@H](N)[C@H](O)c1cccc(O)c1 [Metaraminol Bitartrate] 2.31
CC(O)(CC(=O)O)CC(=O)O [Meglutol] 1.85
NNC(=O)c1ccncc1.Nc1ccc(C(=O)O)c(O)c1 [Pasiniazid] 2.03
O=[N+]([O-])c1ccc(O)c2ncccc12 [Nitroxoline] 2.27
C[C@@H]1CN(c2c(F)c(F)c3c(=O)c(C(=O)O)cn(C4CC4)c3c2F)C[C@H](C)N1 [Orbifloxacin] 1.63
O=S(=O)(c1cccc2cnccc12)N1CCCNCC1 [Fasudil Hydrochloride] 1.78
CCc1nn(CCCN2CCN(c3cccc(Cl)c3)CC2)c(=O)n1CCOc1ccccc1 [Nefazodone] 2.27
CC(=O)Nc1ccc(OC(C)=O)cc1 [Diacetamate] 1.77
CCC1(C)CC(=O)NC1=O (centres undefined) [Ethosuximide] 1.8
CCCNC(C)(C)COC(=O)c1ccccc1 [Meprylcaine Hydrochloride] 1.8
Nc1nc(/C(=C/CC(=O)O)C(=O)N[C@@H]2C(=O)N3C(C(=O)O)=CCS[C@H]23)cs1 [Ceftibuten] 1.57
Nc1ccc(C(=O)O)c(O)c1 [Aminosalicylic Acid] 1.79
CCCCN1CCCC[C@H]1C(=O)Nc1c(C)cccc1C [Levobupivacaine] 2.31
O=C(O)c1ccccc1Nc1cccc(C(F)(F)F)c1 [Flufenamic Acid] 1.9
CC(=O)Nc1ccc(S(=O)(=O)c2ccc(NC(C)=O)cc2)cc1 [Acedapsone] 1.73
CCCCC(=O)N(Cc1ccc(-c2ccccc2-c2nnn[nH]2)cc1)[C@H](C(=O)O)C(C)C [Valsartan] 1.58
CCN(CC)CCNC(=O)c1cc(Br)c(N)cc1OC [Bromopride] 1.48
OC[C@H]1O[C@@H](O[C@H]2[C@H](O)[C@@H](O)C(O)O[C@@H]2CO)[C@H](O)[C@@H](O)[C@H]1O (some centres undefined) [Lactose Monohydrate] 2.05
CC(C)(C)NC[C@H](O)COc1cccc2c1CCCC2=O [Levobunolol Hydrochloride] 1.01
C[N+](C)(C)CCOC(N)=O [Carbachol] 1.7
O=C(NC(Cc1cc(=O)[nH]c2ccccc12)C(=O)O)c1ccc(Cl)cc1 (centres undefined) [Rebamipide] 1.34
C[C@H](CCC(=O)O)[C@H]1CC[C@H]2[C@@H]3C(=O)C[C@@H]4CC(=O)CC[C@]4(C)[C@H]3CC(=O)[C@]12C [Dehydrocholic Acid] 1.78
N[C@@H](Cc1ccc(O)c(O)c1)C(=O)O [Levodopa] 1.36
CN1CCN2c3ccccc3Cc3ccccc3C2C1 (centres undefined) [Mianserin] 1.84
O=C(O)CCC(=O)c1ccc(-c2ccccc2)cc1 [Fenbufen] 1.24
O=C(O)c1cccnc1 [Niacin] 1.81
CC1(C)O[C@@H]2C[C@H]3[C@@H]4C[C@H](F)C5=CC(=O)CC[C@]5(C)[C@H]4[C@@H](O)C[C@]3(C)[C@]2(C(=O)CO)O1 [Flurandrenolide] 1.74
O=c1cc[nH]c(=O)[nH]1 [Uracil] 1.55
CCC[C@@H]1C[C@@H](C(=O)N[C@@H]([C@H]2O[C@H](SC)[C@H](O)[C@@H](O)[C@H]2O)[C@@H](C)O)N(C)C1 [Lincomycin] 1.81
CC/C=C\C/C=C\C/C=C\C/C=C\C/C=C\C/C=C\CCC(=O)O [Doconexent] 1.59
CCOc1ccc(Cc2nccc3cc(OCC)c(OCC)cc23)cc1OCC [Ethaverine Hydrochloride] 2.33
O=C(Nc1ccc([N+](=O)[O-])cc1Cl)c1cc(Cl)ccc1O [niclosamide] 2.23

For reference, some entries already given.
Mahalanobis distance, inactive:
CN1CCN2c3ccccc3Cc3ccccc3C2C1 (centres undefined) [Mianserin] 1.84
O=C(O)CCC(=O)c1ccc(-c2ccccc2)cc1 [Fenbufen] 1.24
O=C(O)c1cccnc1 [Niacin] 1.81
CC1(C)O[C@@H]2C[C@H]3[C@@H]4C[C@H](F)C5=CC(=O)CC[C@]5(C)[C@H]4[C@@H](O)C[C@]3(C)[C@]2(C(=O)CO)O1 [Flurandrenolide] 1.74

Following part.

Mahalanobis distance, active:
O=C1CN(/N=C/c2ccc([N+](=O)[O-])o2)C(=O)N1 [Nitrofurantoin] 2.71
CCC(C)(C)C(=O)O[C@H]1C[C@@H](C)C=C2C=C[C@H](C)[C@H](CC[C@@H]3C[C@@H](O)CC(=O)O3)[C@H]21 [Simvastatin] 2.48
CN(C)CCOC(=O)C(c1ccccc1)C1(O)CCCC1 (centres undefined) [Cyclopentolate Hydrochloride] 4.95
O=C1O[C@H]([C@@H](O)CO)C(O)=C1O [Ascorbic Acid] 4.33
Clc1ccc(C(c2ccccc2Cl)C(Cl)Cl)cc1 (centres undefined) [Mitotane] 3.1
OC(CCN1CCCCC1)(c1ccccc1)c1ccccc1 [Pridinol] 3.29
CC(C)(C)NC[C@H](O)COc1cccc2c1CCCC2=O [Levobunolol] 2.58
O=C1c2c(O)ccc(O)c2C(=O)c2c(NCCNCCO)ccc(NCCNCCO)c21 [Mitoxantrone] 4.67
Cc1cccc(N(C)C(=S)Oc2ccc3ccccc3c2)c1 [Tolnaftate] 3.01
O=c1[nH]c(=O)n([C@H]2C[C@H](O)[C@@H](CO)O2)cc1I [Idoxuridine] 2.49
CCN1CCCC1CNC(=O)c1cc(S(N)(=O)=O)ccc1OC (centres undefined) [Sulpiride] 2.5
C#C[C@]1(O)CC[C@H]2[C@@H]3CCC4=Cc5oncc5C[C@]4(C)[C@H]3CC[C@@]21C [Danazol] 2.96

From the supplement of paper PMC7752906
